Measurements reported in PubChem BioAssay AID2685 (National Center for Advancing Translational Sciences (NCATS), 2010).
This is one part of the list. The main result of the screen is listed elsewhere. These columns were measured beside it and carry no call. Most of these compounds were active or inconclusive in the main read-out, so they are no random draw. Potencies come from curve fits of mixed quality, noted in brackets.

Experiment: qHTS Assay for Lipid Storage Modulators in Drosophila S3 Cells;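 for cell number change: cells counted by Cell Tracker Red CMTPX staining in the red channel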
Settings: BODIPY lipid droplet fluorescence, 18-24 h; for cell number change: measured here: cell count max response, cells fed with added oleic acid
How it was run: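 Drosophila S3 cells got compounds at several concentrations plus oleic acid (400 uM solution). Laser-scanning cytometry with 488 nm excitation read lipid droplets at 500-530 nm and cells at 575-640 nm. Percent activity was relative to 20 uM Triacsin C.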

[1] = measured here: cell number channel AC50, cells fed with added oleic acid
[2] = measured here: lipid fluorescence (Fed channel) AC50, cells fed with added oleic acid

| Compound | cell number change [%] | AC50 [1] | AC50 [2] |
| --- | --- | --- | --- |
| COc1cc(C(C)=O)ccc1OCC(O)CN(CCO)Cc1ccccc1 (stereo not drawn) | 55.5 | – | – |
| O=C(Nc1nc(-c2cccs2)cs1)c1ccc(S(=O)(=O)N2CCCC2)cc1 | -21.5 | 0.517 µM [falling, full curve, poor fit] | – |
| COc1ccc2[nH]c(=O)c(CN(C)C(=O)C3CCCCC3)cc2c1 | -23.2 | 0.00411 µM [falling, full curve, poor fit] | 2.31 µM [rising, single point] |
| CCOc1ccccc1NC(=O)CSc1nc2ccccc2nc1N1CCOCC1 | -2.02 | – | 6.51 µM [rising, partial curve, poor fit] |
| COc1ccc(NC(=O)c2cc(Cl)ccc2NC(=O)c2ccco2)c(OC)c1 | – | 1.64 µM [rising, partial curve] | 23.1 µM [rising, partial curve] |
| CN(C)C1=NC[C@H](Cc2ccccc2)N1CCc1cccc(F)c1 | 11.9 | – | 3.26 µM [falling, partial curve] |
| COCCn1c(C)cc(C(=O)COC(=O)CCc2ccc(S(=O)(=O)N3CCOCC3)cc2)c1C | 12.8 | 1.3 µM [rising, full curve, poor fit] | – |
| COc1ccc(-c2noc(-c3ccccc3C(=O)N3CCOCC3)n2)cc1 | – | – | 6.51 µM [falling, single point] |
| COc1ccc2c(c1)O[C@H](c1ccc3c(c1)OCO3)[C@@H](OC(=O)N[C@H]1CCCc3ccccc31)C2=O | 12.4 | – | 1.3 µM [rising, partial curve] |
| CCC(=O)Nc1ccc(N2CCN(Cc3ccccc3)CC2)cc1 | -8.01 | 0.651 µM [falling, single point] | 20.6 µM [rising, single point] |
| CCc1ccc(NC(=O)CSc2nc3nc(C)cc(C)n3n2)cc1 | -41.3 | 29.1 µM [falling, single point] | 29.1 µM [falling, single point] |
| Cc1ccc(S(=O)(=O)N2CCN(C(=O)Cc3sc(C)nc3-c3ccc(F)cc3)CC2)c(C)c1 | 45 | 5.8 µM [rising, partial curve] | 11.6 µM [rising, partial curve] |
| Cc1nc(C)c(-c2ccc(SCc3ccccc3C)nn2)s1 | -12.8 | – | 3.26 µM [rising, single point] |
| COc1cc(/C=C/C(C)=O)cc(OC)c1OC | 27.4 | – | – |
| CCCN(CCC)C(=O)c1ccc2c(c1)S(=O)(=O)c1ccccc1C2=O | -23.3 | – | – |
| O=C1Nc2ccccc2/C1=N/N=C/c1ccc(-c2ccc([N+](=O)[O-])cc2)o1 | 2.64 | – | 0.146 µM [rising, partial curve, poor fit] |
| Cc1nc2ccc(NC(=O)c3ccc([N+](=O)[O-])cc3)cc2[nH]1 | -14.4 | – | 18.4 µM [falling, single point] |
| O=C(CN1C(=O)NC2(CCCC2)C1=O)OCc1ccc(Br)cc1 | 66 | – | – |
| CN(CC(=O)Nc1ccc(F)cc1)C(=O)c1ccccc1Sc1ccccc1C#N | 7.74 | – | – |
| COc1ccccc1N1CCN(C(=O)CC(NC(=O)c2ccccc2Cl)c2ccccc2)CC1 (stereo not drawn) | 37.8 | – | – |

| Compound | cell number change [%] | AC50 [1] | AC50 [2] |
| --- | --- | --- | --- |
| CCSC1=C(C#N)C(c2cccc(O)c2)CC(=O)N1 (stereo not drawn) | 11 | – | 1.46 µM [rising, partial curve, poor fit] |
| OCCC1CN(Cc2cccn2-c2nccs2)CCN1CCc1ccccc1 (stereo not drawn) | -1.54 | – | 1.84 µM [rising, partial curve, poor fit] |
| CCOc1ccc(CCNC(=O)COC(=O)c2c(OC)cccc2OC)cc1OCC | -47.9 | 32.6 µM [falling, partial curve, poor fit] | 14.6 µM [falling, partial curve, poor fit] |
| O=C(CSc1ccccn1)Nc1ccccc1F | -7.75 | – | 0.058 µM [falling, full curve, poor fit] |
| CC(=O)CCC(=O)c1ccc2ccccc2c1 | 18.2 | – | 20.6 µM [rising, partial curve] |
| CN(C)c1nc(C(=O)Nc2ccccc2)nc(N(C)C)n1 | 1.09 | – | 8.2 µM [rising, partial curve] |
| CCOC(=O)c1c(NC(C)=O)sc(C(=O)NC2CCCC2)c1C | 11.8 | 0.0326 µM [rising, full curve, poor fit] | – |
| CCOc1ccc(C(=O)COC(=O)c2cc([N+](=O)[O-])ccc2N2CCOCC2)cc1 | 5.77 | – | – |
| Cc1ccc(SCCC(=O)N(C)C)cc1 | -21.6 | 6.51 µM [falling, single point] | 3.26 µM [falling, full curve] |
| C/C(=N\NC(=O)Cc1csc(N2CCOCC2)n1)c1ccc(Cl)c(Cl)c1 | – | 6.51 µM [rising, single point] | – |
| Cc1ccc(N2C(=O)CC(C)(C)CC2=O)cc1Cl | 4.56 | – | 29.1 µM [rising, single point] |
| Cc1oc(-c2cccs2)[n+]([O-])c1C | 39.1 | 29.1 µM [rising, single point] | – |
| Cc1ccc(-n2[nH]c(C)c(/C=N/n3c(C)nc4ccccc4c3=O)c2=O)cc1 | 85 | 5.8 µM [rising, full curve] | – |
| CC(Sc1n[nH]c(-c2cccs2)n1)C(=O)Nc1ccccc1F (stereo not drawn) | 0.774 | – | 3.66 µM [falling, single point] |
| Cc1c(OC(C)C(=O)NCC(O)c2ccccc2)ccc2c3c(c(=O)oc12)CCCC3 (stereo not drawn) | – | – | 29.1 µM [falling, single point] |
| Clc1ccc(Cc2nnc(-c3ccccc3Br)o2)cc1 | -0.553 | – | – |
| CCOC(=O)c1c(C)[nH]c2c1-c1ccccc1C(=O)C2=O | -27.8 | 4.11 µM [falling, full curve, poor fit] | 5.17 µM [falling, partial curve] |
| COc1ccccc1-n1c(C)nc2cc(C(=O)NCC3CCCO3)ccc21 (stereo not drawn) | 63 | 29.1 µM [rising, single point] | 29.1 µM [rising, single point] |
| c1ccc(CCC2=NCCn3cccc32)cc1 | -19.1 | – | – |
| C/C(=N\NC(=O)c1ccccc1)c1ccc(N2CCCCC2)cc1 | 9.94 | – | 0.58 µM [rising, single point] |

| Compound | cell number change [%] | AC50 [1] | AC50 [2] |
| --- | --- | --- | --- |
| Cc1c(C(=O)N2CCc3ccccc3C2)oc2ccc(S(=O)(=O)N3CC(C)CC(C)C3)cc12 (stereo not drawn) | -13.8 | – | – |
| COc1ccc(CCNC(=O)CSc2nc3ccccc3o2)cc1OC | -8.16 | 0.092 µM [falling, full curve] | 0.82 µM [falling, partial curve, poor fit] |
| O=C(NCC1CCCO1)C1CCCCN1S(=O)(=O)c1ccc(F)cc1 (stereo not drawn) | 6.29 | – | 25.9 µM [falling, partial curve] |
| O=C(NC1CCCN(Cc2ccc(Cl)cc2)C1)C1CCC1 (stereo not drawn) | -18.4 | – | – |
| O=C1OC(/C=C/c2ccc(Cl)cc2)=NC/1=C/c1ccco1 | 30 | 0.411 µM [rising, full curve] | 18.4 µM [falling, partial curve] |
| N/C(Cn1cncn1)=N\OC(=O)c1ccc(Cl)cc1 | -10.2 | – | – |
| COC(=O)c1ccccc1NC(=O)CN(C)S(=O)(=O)c1ccc(OC)c(C)c1 | 2.18 | – | 9.2 µM [rising, partial curve] |
| O=C(Cn1c(=O)n(Cc2ccco2)c(=O)c2c3c(sc21)CCCCC3)c1ccccc1 | 10.5 | – | 20.6 µM [rising, partial curve, poor fit] |
| CCOC(=O)C1CCN(C(=O)CCc2c(C)nc3ncnn3c2C)CC1 | 15.5 | – | 0.116 µM [falling, full curve, poor fit] |
| C=CCn1c(SCC(=O)N2CC(C)OC(C)C2)nnc1-c1ccncc1 (stereo not drawn) | 10.3 | – | 0.116 µM [falling, full curve, poor fit] |
| COc1ccc(-c2noc(C(=O)NCc3ccccc3Cl)n2)cc1OC | 15 | – | – |
| N#Cc1c(-c2ccccc2)nc(SCC(=O)Nc2nnc(C(F)(F)F)s2)[nH]c1=O | -36.6 | 1.3 µM [rising, full curve] | – |
| CC1CC(C)CN(S(=O)(=O)c2ccc(NC(=S)NC(=O)c3ccccc3)cc2)C1 (stereo not drawn) | 11.9 | – | 13 µM [rising, partial curve, poor fit] |
| Cc1ccc(S(=O)(=O)N(C)C)cc1NC(=O)c1ccncc1 | 25.6 | – | 0.58 µM [falling, single point] |
| CCN(CC)c1ccc(NC(=O)C2CC(=O)N(Cc3ccccc3)C2)cc1 (stereo not drawn) | 39.8 | 23.1 µM [rising, partial curve, poor fit] | – |
| CCOC(=O)C1C(=O)NC(c2ccccc2)=NC1c1ccc(Cl)cc1 (stereo not drawn) | 29 | 4.11 µM [rising, full curve, poor fit] | 3.66 µM [rising, single point] |
| CCOc1ccc2c(c1)C(c1ccccc1)=NNC(c1ccccc1)=N2 | -32 | 18.4 µM [falling, single point] | 11.6 µM [falling, partial curve] |
| C/C(=N\OCC(=O)OCC(=O)N(C)c1ccccc1)c1ccc2c(c1)OCO2 | -14.8 | – | 18.4 µM [falling, single point] |
| CCNc1cc(=O)n(C)c(=O)n1C | -18.9 | 0.13 µM [falling, full curve, poor fit] | 0.517 µM [falling, full curve, poor fit] |
| Cc1ccc2cc3c(NC(=O)c4ccco4)nn(CC(C)C)c3nc2c1 | -38.7 | 11.6 µM [falling, partial curve] | 16.4 µM [falling, single point] |

Entries of single compounds from above. Values in the order: cell number change [%]	AC50 [1]	AC50 [2]
CN(C)C1=NC[C@H](Cc2ccccc2)N1CCc1cccc(F)c1 in the list: 11.9	–	3.26 µM [falling, partial curve]
CC(Sc1n[nH]c(-c2cccs2)n1)C(=O)Nc1ccccc1F (stereo not drawn) in the list: 0.774	–	3.66 µM [falling, single point]
CCC(=O)Nc1ccc(N2CCN(Cc3ccccc3)CC2)cc1 in the list: -8.01	0.651 µM [falling, single point]	20.6 µM [rising, single point]
CCNc1cc(=O)n(C)c(=O)n1C in the list: -18.9	0.13 µM [falling, full curve, poor fit]	0.517 µM [falling, full curve, poor fit]
